Publication PMC6303091

Target: T1, TOPLESS amino-terminal region (TPL-N), bait (A. thaliana) (UniProt Q94AI7)
T1 sequence: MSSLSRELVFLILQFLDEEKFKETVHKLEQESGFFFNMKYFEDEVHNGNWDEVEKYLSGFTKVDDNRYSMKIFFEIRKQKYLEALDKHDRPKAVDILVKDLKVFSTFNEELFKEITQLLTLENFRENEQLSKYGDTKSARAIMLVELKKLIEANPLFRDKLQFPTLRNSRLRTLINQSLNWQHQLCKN
Experiment: two-hybrid; library screen (Y2H-seq): PJ69-4α bait strain transformed with the A. thaliana AT7 cDNA prey library; SD-Leu-Trp-His + 5 mM 3-AT; preys identified by Sanger sequencing of colonies, qPCR and NGS of pooled prey inserts, against an EMPTY bait screen or the library

| binding | Substance |
| --- | --- |
| binds | AT2G40260, library prey (A. thaliana) |
| binds | AT3G05670, library prey (A. thaliana) |
| binds | AT3G54390, library prey (A. thaliana) |

Results are given in words; binding and its absence hold for the method and conditions named. Binding can be weak; no strength is given.
